The target in this test is GST-tagged NDRG1 deletion mutant Δ2 (α/β hydrolase fold domain 90–306AA deleted). Kind of test: pull-down; GST fusion proteins immobilised on Glutathione Sepharose 4B, incubated with total cell lysate of HUVECs overnight at 4 °C; X-buffer (50 mM Tris-HCl pH 8.0, 1 mM EDTA, 120 mM NaCl, 0.5% NP-40, 10% glycerol, 1 mM PMSF); western blot with anti-PLCγ1; only the target purified. For orientation: Immunoblotting shows a protein as a band on a membrane.

Results are given in words; binding and its absence hold for the method and conditions named. In cells and extracts the contact can be indirect. A result given as binding can be weak or reduced; the word gives no strength.

B1: phospholipase Cγ1 (PLCγ1), endogenous in HUVECs (enzyme, UniProt P19174 1-1290)
chain: MAGAASPCANGCGPGAPSDAEVLHLCRSLEVGTVMTLFYSKKSQRPERKTFQVKLETRQITWSRGADKIEGAIDIREIKEIRPGKTSRDFDRYQEDPAFRPDQSHCFVILYGMEFRLKTLSLQATSEDEVNMWIKGLTWLMEDTLQAPTPLQIERWLRKQFYSVDRNREDRISAKDLKNMLSQVNYRVPNMRFLRERLTDLEQRSGDITYGQFAQLYRSLMYSAQKTMDLPFLEASTLRAGERPELCRVSLPEFQQFLLDYQGELWAVDRLQVQEFMLSFLRDPLREIEEPYFFLDEFVTFLFSKENSVWNSQLDAVCPDTMNNPLSHYWISSSHNTYLTGDQFSSESSLEAYARCLRMGCRCIELDCWDGPDGMPVIYHGHTLTTKIKFSDVLHTIKEHAFVASEYPVILSIEDHCSIAQQRNMAQYFKKVLGDTLLTKPVEISADGLPSPNQLKRKILIKHKKLAEGSAYEEVPTSMMYSENDISNSIKNGILYLEDPVNHEWYPHYFVLTSSKIYYSEETSSDQGNEDEEEPKEVSSSTELHSNEKWFHGKLGAGRDGRHIAERLLTEYCIETGAPDGSFLVRESETFVGDYTLSFWRNGKVQHCRIHSRQDAGTPKFFLTDNLVFDSLYDLITHYQQVPLRCNEFEMRLSEPVPQTNAHESKEWYHASLTRAQAEHMLMRVPRDGAFLVRKRNEPNSYAISFRAEGKIKHCRVQQEGQTVMLGNSEFDSLVDLISYYEKHPLYRKMKLRYPINEEALEKIGTAEPDYGALYEGRNPGFYVEANPMPTFKCAVKALFDYKAQREDELTFIKSAIIQNVEKQEGGWWRGDYGGKKQLWFPSNYVEEMVNPVALEPEREHLDENSPLGDLLRGVLDVPACQIAIRPEGKNNRLFVFSISMASVAHWSLDVAADSQEELQDWVKKIREVAQTADARLTEGKIMERRKKIALELSELVVYCRPVPFDEEKIGTERACYRDMSSFPETKAEKYVNKAKGKKFLQYNRLQLSRIYPKGQRLDSSNYDPLPMWICGSQLVALNFQTPDKPMQMNQALFMTGRHCGYVLQPSTMRDEAFDPFDKSSLRGLEPCAISIEVLGARHLPKNGRGIVCPFVEIEVAGAEYDSTKQKTEFVVDNGLNPVWPAKPFHFQISNPEFAFLRFVVYEEDMFSDQNFLAQATFPVKGLKTGYRAVPLKNNYSEDLELASLLIKIDIFPAKENGDLSPFSGTSLRERGSDASGQLFHGRAREGSFESRYQQPFEDFRISQEHLADHFDSRERRAPRRTRVNGDNRL
As for B1, the binding result is recorded as “binds”.
